Measured values: patent US6500222B2, “Diureides and their use” (priority 1999, dated 2002)
Some of these results come from one statement about several compounds together.

Test system: ryegrass
Experiment: Crop production experiment in Mitscherlich containers with ryegrass as test crop
Conditions: 2.4 g of N per container

## fumaric acid diureide [Compound 1C]
  period of very uniform nitrogen supply and nitrogen uptake and no plant damage: more than 8 months

## malonic acid diureide [Compound 1A]
  period of very uniform nitrogen supply and nitrogen uptake and no plant damage: more than 8 months
